## Screening data, single-dose tests

The values are deposited in ChEMBL (CHEMBL3988442, “University of Dundee, Small-Polar-MMV Screening Library” (2021)).

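Whole-parasite assay of Trypanosoma brucei over 72 hours; the read-out is not stated. Compounds at 10 µM. Direction is inferred from retests: higher values go with stronger inhibition. Values scatter widely below zero; nearly all retest evidence comes from the higher of the two concentrations used. Size under these conditions: about 2,700 compounds, about 14 of them at 50% or above in at least one test.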

Values are the deposited “Percent Effect”, in %.
How 0% and 100% were set is not recorded. Most values in the screen are low, and negative values occur.
Compounds were drawn at random from those tested, without regard to their results.

For CN1CCN(c2cc(CNC(=O)c3ccc(Cl)o3)ccn2)CC1 the result was -9.097%.
For Cc1nc(CN2CCN(C(C)c3nc(C(C)C)no3)CC2)oc1C (configuration not stated) the result was -24.82%.
For CCc1nnc(CN2CCc3cnc(C)nc3C2)o1 the result was -51.28%.
For CC(NC(=O)Cn1ccc(=O)n(C)c1=O)c1ccccc1F (configuration not stated) the result was -37.1%.
For CC(NC(=O)N1CCN(c2nccs2)CC1)c1nncn1C (configuration not stated) the result was 0.5893%.
For Cc1cnn(CC2CCCCN2C(=O)c2cnc3n[nH]c(C)c3c2)c1 (configuration not stated) the result was -68.99%.
For Cc1ccc(C(=O)N2CCCN(Cc3cccs3)CC2)n1C the result was -60.15%.
For COCCc1noc(CN2CCCC2Cn2nc(C)cc2C)n1 (configuration not stated) the result was -35.41%.
For O=C(NCCCNc1ccc(C(F)(F)F)cn1)c1ccccc1 the result was -30.72%.
For CC(C)c1cc(NC(=O)CN2CCC(C(N)=O)CC2)on1 the result was -40.1%.
For O=C(NCCNC(=O)c1scnc1Cl)c1ccoc1 the result was -25.97%.
For O=C(c1sccc1C1CC1)N1CCCN(Cc2cscn2)CC1 the result was -40.71%.
For c1cncc(CNC2CCc3ncnn3C2)c1 (configuration not stated) the result was -44.51%.
For CCN(CC)CC(=O)N1CCCCC1c1nc(C)cs1 (configuration not stated) the result was -55.46%.
For Cc1ccc(CNC(=O)CN2CCOC(Cn3cncn3)C2)s1 (configuration not stated) the result was -35.03%.
For CCc1nc2n(n1)CC(NCc1nc(-c3ccccn3)no1)CC2 (configuration not stated) the result was -74.09%.
For CNC(=O)c1ccc(C(=O)N2CCCC2c2c(C)nn(C)c2C)cn1 (configuration not stated) the result was -45.86%.
For CCc1nnsc1C(=O)N1CCCC(n2nc(C)nc2C)C1 (configuration not stated) the result was -40.8%.

The last 2 entries again:

* CNC(=O)c1ccc(C(=O)N2CCCC2c2c(C)nn(C)c2C)cn1 (configuration not stated) | -45.86%
* CCc1nnsc1C(=O)N1CCCC(n2nc(C)nc2C)C1 (configuration not stated) | -40.8%